# Data published in US6939864B1, “Animal feed compositions and methods of using the same” (Purdue Research Foundation, priority 2001, dated 2005).
# Assay: Calf study: blood measurements (hematocrit, lymphocytes, fibrinogen)
# Assay type: in vivo
# Conditions: calves, weekly blood samples
# Method: Three days after they were born, calves were started on all milk, milk replacer. The calves were assigned randomly to one of four treatment groups control, β-glucan, Vitamin C, and β-glucan and Vitamin C. Each treatment is represented in a block (1 block has 4 calves and each room has 3 blocks). Initial weight and temperature were taken when calves were placed on study, then weekly for six more weeks.
# Fecal scores, nasal and ocular discharges were recorded daily along with room temperature and humidity. Blood samples were taken every week for seven weeks; 10 ml heparinized tube for plasma to measure cortisol and ascorbic acid; 5 ml sodium citrate tube for hematocrits, granulocytes, lymphocytes and fibrinogen.
# Calves were fed milk replacer equaling 10% of their body weight per day, which was given in two equal rations (morning and afternoon). Dry milk replacer was equal to 12.5% of amount fed. Calves on treatment […] were given β-glucan equaling 0.3125% of total intake. Calves on treatment 3 and 4 received 250 mg of Vitamin C twice a day.
substance,measurement,setting,value
ascorbyl-2-polyphosphonate [AA],Lymphocyte percent,,74.35%
same,Mean fibrinogen,mean ±SE,442.34 ± 12.91 mg/dL
